Values of other authors in US20240376431A1, “MICROBIAL CROSS-REACTIVE ANTIGENS FOR USE IN THE STIMULATION OF T-CELLS” (priority 2021, published 2024).
At least one structure is not confirmed: it was looked up by name or label, or the drawing left a doubt.

System: COVID-19
Settings: severe cases of COVID-19, recently published clinical data

In the case of CCC(CC)COC(=O)[C@H](C)N[P@](=O)(OC[C@H]1O[C@@](C#N)(c2ccc3c(N)ncnn23)[C@H](O)[C@@H]1O)Oc1ccccc1 [Remdesivir], the “clinical benefit vs. placebo” value is given as “do not show a strong benefit vs. placebo”.
